PubChem BioAssay AID720505 – Drosophila RNAi Screening Center, 2013

Assay: 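Fly regulators or components of the CRAC channel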 (primary screen)
Cells: Drosophila S2R+ cells
Reagent: long dsRNA against Drosophila genes
Conditions: thapsigargin (2 µM) in calcium-free buffer to empty internal stores, then 2 mM calcium added back
Measurement: 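Fluo-4 signal in 384-well plates read on a FLIPR after thapsigargin (2 µM, calcium-free) store depletion and 2 mM calcium add-back; unnormalised mean endpoint per well; screen run twice, selected wells retested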
Scale: calcium signal and retest calcium signal: higher = more calcium entry after store depletion
Hit rule: 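About 1500 genes called as lowering calcium entry, by varying amounts, judged against per-plate control wells with STIM1 as positive and Rho1 as negative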
Calls: active = called as lowering calcium entry; inactive = not called
The deposit covers about 20,000 reagents; this is an unselected part of those with a known target gene and a result. Of all reagents, about 2,100 (10%) got an active call. 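Raw plate signals without normalisation; calls rest on control-based scores that were not deposited; replicate 2 separates called from uncalled poorly.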 A plus sign joins genes that one reagent is predicted to hit. The record does not give: the amount of reagent, the time to read-out.

| Target gene | DRSC id | calcium signal, replicate 1 | calcium signal, replicate 2 | retest calcium signal, replicate 1 | retest calcium signal, replicate 2 | activity call |
| --- | --- | --- | --- | --- | --- | --- |
| COX8 (GeneID 40390) | DRSC11814 | 84.1 | 148 | – | – | inactive |
| CG5612 (GeneID 43316) | DRSC15844 | 68.8 | 75.6 | – | – | active |
| pnr (GeneID 44849) | DRSC17027 | 146 | 194 | – | – | inactive |
| CG11586 (GeneID 38520) | DRSC08203 | 111 | 131 | 92 | 95.5 | inactive |
| CG11342 (GeneID 38538) | DRSC08175 | 54.4 | 95.5 | – | – | inactive |
| CG9458 (GeneID 41214) | DRSC16495 | 150 | 108 | – | – | inactive |
| LysX (GeneID 38122) | DRSC08678 | 66.8 | 134 | – | – | inactive |
| Ir7b (GeneID 31690) | DRSC18009 | 288 | 79.1 | – | – | inactive |
| Cyp6a22 (GeneID 49847) | DRSC07382 | 147 | 155 | – | – | inactive |
| CG5149 (GeneID 34013) | DRSC02819 | 99.1 | 274 | – | – | inactive |
| CG6912 (GeneID 41820) | DRSC16132 | 141 | 177 | – | – | inactive |
| Josd (GeneID 31560) | DRSC18323 | 291 | 77.4 | – | – | inactive |
| CG13998 (GeneID 50423) | DRSC02330 | 217 | 112 | – | – | inactive |
| CG12224 (GeneID 41453) | DRSC14480 | 176 | 92.1 | – | – | inactive |
| hmw (GeneID 42207) | DRSC16277 | 224 | 235 | – | – | inactive |
| Dhc62B (GeneID 38226) | DRSC08655 | 87.7 | 68 | – | – | inactive |
| CG1941 (GeneID 35718) | DRSC06802 | 107 | 188 | – | – | inactive |
| Sur-8 (GeneID 42093) | DRSC15794 | 147 | 175 | – | – | inactive |
| CG17002 (GeneID 35610) | DRSC04978 | 194 | 106 | – | – | inactive |
| CG43341 (GeneID 12798088) | DRSC05055 | 97 | 94.2 | – | – | inactive |
| prod (GeneID 37187) | DRSC07667 | 101 | 138 | – | – | inactive |
| CG34168 (GeneID 50457) | DRSC01938 | 89 | 98.1 | – | – | inactive |
| CG14551 (GeneID 43171) | DRSC14894 | 222 | 115 | – | – | inactive |
| CG10553 (GeneID 43064) | DRSC14254 | 241 | 126 | – | – | inactive |
| CG18661 (GeneID 50438) | DRSC02690 | 120 | 144 | – | – | inactive |
| ttm3 (GeneID 35437) | DRSC03736 | 115 | 120 | – | – | inactive |
| CG3939 (GeneID 31295) | DRSC18498 | 90.2 | 134 | – | – | inactive |
| repo (GeneID 47285) | DRSC16369 | 280 | 118 | – | – | inactive |
| repo (GeneID 47285) | DRSC23108 | 151 | 148 | – | – | inactive |
| CR32011 + CR32010 + PlexB + 1 more | DRSC21664 | 118 | 110 | – | – | inactive |
| Gbeta76C (GeneID 40148) | DRSC11174 | 107 | 86 | – | – | inactive |
| DCP2 (GeneID 39722) | DRSC10597 | 160 | 95.6 | – | – | inactive |
| CR16735 (GeneID 10178810) | DRSC15144 | 120 | 139 | – | – | inactive |
| CG1764 (GeneID 32281) | DRSC19779 | 108 | 121 | – | – | inactive |
| CG4198 (GeneID 31445) | DRSC18354 | 147 | 90.3 | – | – | inactive |
| Cpr62Bc (GeneID 38241) | DRSC08545 | 110 | 127 | – | – | inactive |
| CG18581 (GeneID 39633) | DRSC10324 | 91.2 | 155 | – | – | inactive |
| CG12546 (GeneID 40483) | DRSC11676 | 67.1 | 114 | – | – | active |
| Nipsnap (GeneID 32573) | DRSC20169 | 133 | 135 | – | – | inactive |
| CG42402 (GeneID 7354470) | DRSC21116 | 123 | 95.8 | – | – | inactive |
| CCKLR-17D1 (GeneID 32860) | DRSC20010 | 60.3 | 87.5 | – | – | active |
| CCKLR-17D1 (GeneID 32860) | DRSC20011 | 41.7 | 91.2 | – | – | active |
| CCKLR-17D1 (GeneID 32860) | DRSC20012 | 61.4 | 109 | – | – | active |
| CG9471 (GeneID 41197) | DRSC16499 | 136 | 105 | – | – | inactive |
| CG8516 (GeneID 41206) | DRSC16437 | 169 | 80.9 | – | – | inactive |
| CG14518 (GeneID 43421) | DRSC14870 | 140 | 150 | – | – | inactive |
| CG6650 (GeneID 39555) | DRSC10685 | 74 | 97.3 | – | – | inactive |
| CG10748 (GeneID 39469) | DRSC09797 | 81.6 | 66.6 | – | – | inactive |
| CG33775 (GeneID 3772054) | DRSC05353 | 112 | 145 | – | – | inactive |
| CAH16 (GeneID 50101) | DRSC15371 | 163 | 153 | – | – | inactive |
| CG8671 (GeneID 35400) | DRSC03102 | 212 | 81.9 | – | – | inactive |
| CG8671 (GeneID 35400) | DRSC03103 | 160 | 92.5 | – | – | inactive |
| Rrp5 (GeneID 42899) | DRSC15862 | 254 | 225 | – | – | inactive |
| ATP8B (GeneID 41469) | DRSC14961 | 64 | 79 | – | – | active |
| Scp1 (GeneID 3355102) | DRSC20799 | 84.6 | 9017 | – | – | inactive |
| Scp1 (GeneID 3355102) | DRSC20803 | 121 | 10576 | – | – | inactive |
| Scp1 (GeneID 3355102) | DRSC20806 | 179 | 90.5 | – | – | inactive |
| nsl1 (GeneID 41911) | DRSC15625 | 126 | 125 | – | – | inactive |
| Cyp28c1 (GeneID 32138) | DRSC20236 | 124 | 104 | – | – | inactive |
| Cdk5 (GeneID 36727) | DRSC07359 | 110 | 112 | – | – | inactive |
| dpp (GeneID 33432) | DRSC00118 | 75.6 | 129 | – | – | inactive |
| dpp (GeneID 33432) | DRSC00121 | 96 | 132 | – | – | inactive |
| dpp (GeneID 33432) | DRSC00813 | 171 | 169 | – | – | inactive |
| Atac2 (GeneID 35113) | DRSC02053 | 104 | 87.9 | – | – | inactive |
| ninaC (GeneID 34012) | DRSC03579 | 150 | 253 | – | – | inactive |
| Sptz (GeneID 41370) | DRSC15758 | 60.7 | 112 | – | – | active |
| RabGGTb (GeneID 47757) | DRSC00804 | 117 | 228 | – | – | inactive |
| spab (GeneID 35901) | DRSC07112 | 108 | 105 | – | – | inactive |
| CG13337 (GeneID 36518) | DRSC06371 | 96.1 | 217 | – | – | inactive |
| Rrp6 (GeneID 41798) | DRSC16223 | 69.6 | 55.8 | – | – | active |
| CG14538 (retired record) (GeneID 34056) | DRSC02396 | 78 | 81.2 | – | – | active |
| CG17359 (GeneID 39549) | DRSC10265 | 81.2 | 119 | – | – | inactive |
| SCaMC (GeneID 39415) | DRSC10293 | 112 | 85.3 | – | – | inactive |
| SCaMC (GeneID 39415) | DRSC10415 | 118 | 82.9 | – | – | inactive |
| CG31710 (GeneID 318907) | DRSC01089 | 149 | 106 | 5283 | 129 | inactive |
| CG31710 (GeneID 318907) | DRSC22863 | 104 | 114 | – | – | inactive |
| emc (GeneID 38091) | DRSC08715 | 110 | 180 | – | – | inactive |
| emc (GeneID 38091) | DRSC23238 | 122 | 139 | – | – | inactive |
| wrapper (GeneID 37555) | DRSC04723 | 193 | 146 | – | – | inactive |
| CG9919 (GeneID 32598) | DRSC20219 | 82.7 | 144 | – | – | inactive |
| CG32228 (GeneID 326202) | DRSC22296 | 129 | 191 | – | – | inactive |
| CG34330 (GeneID 2768869) | DRSC20043 | 77.3 | 92.1 | – | – | active |
| abs (GeneID 40530) | DRSC12372 | 114 | 114 | – | – | inactive |

8 consecutive reagents already listed, for reference:
| Target gene | DRSC id | calcium signal, replicate 1 | calcium signal, replicate 2 | retest calcium signal, replicate 1 | retest calcium signal, replicate 2 | activity call |
| --- | --- | --- | --- | --- | --- | --- |
| dpp (GeneID 33432) | DRSC00118 | 75.6 | 129 | – | – | inactive |
| dpp (GeneID 33432) | DRSC00121 | 96 | 132 | – | – | inactive |
| dpp (GeneID 33432) | DRSC00813 | 171 | 169 | – | – | inactive |
| Atac2 (GeneID 35113) | DRSC02053 | 104 | 87.9 | – | – | inactive |
| ninaC (GeneID 34012) | DRSC03579 | 150 | 253 | – | – | inactive |
| Sptz (GeneID 41370) | DRSC15758 | 60.7 | 112 | – | – | active |
| RabGGTb (GeneID 47757) | DRSC00804 | 117 | 228 | – | – | inactive |
| spab (GeneID 35901) | DRSC07112 | 108 | 105 | – | – | inactive |
